Laboratory results taken from the supplement of paper PMC11006884.
Shown are results outside the selection of targets with a hit, which stands elsewhere. Single values of this set are uncertain. The list shows a part of the results, in another mix than the full data.

The chains behind the UniProt entries cited, without tags or fusion partners. Where a name states a change or a piece, a line headed by the entry shows the natural chain unless it says otherwise.
UniProt P14866: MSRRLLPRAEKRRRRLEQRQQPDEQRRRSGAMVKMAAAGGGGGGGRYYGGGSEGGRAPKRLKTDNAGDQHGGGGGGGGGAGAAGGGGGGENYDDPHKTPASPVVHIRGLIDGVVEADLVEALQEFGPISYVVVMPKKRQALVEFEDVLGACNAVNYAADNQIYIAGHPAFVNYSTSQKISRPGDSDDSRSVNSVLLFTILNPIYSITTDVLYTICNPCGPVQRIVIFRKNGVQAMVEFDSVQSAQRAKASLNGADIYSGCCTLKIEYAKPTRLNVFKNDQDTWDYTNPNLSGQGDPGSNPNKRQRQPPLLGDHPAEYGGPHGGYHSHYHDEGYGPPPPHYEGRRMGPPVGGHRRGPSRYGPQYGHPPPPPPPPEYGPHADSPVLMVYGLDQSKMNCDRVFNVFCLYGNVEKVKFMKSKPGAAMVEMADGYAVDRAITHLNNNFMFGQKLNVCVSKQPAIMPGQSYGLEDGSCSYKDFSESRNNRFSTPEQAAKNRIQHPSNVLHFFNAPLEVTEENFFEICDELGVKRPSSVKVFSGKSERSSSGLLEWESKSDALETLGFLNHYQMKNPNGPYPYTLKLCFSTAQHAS
UniProt P07814: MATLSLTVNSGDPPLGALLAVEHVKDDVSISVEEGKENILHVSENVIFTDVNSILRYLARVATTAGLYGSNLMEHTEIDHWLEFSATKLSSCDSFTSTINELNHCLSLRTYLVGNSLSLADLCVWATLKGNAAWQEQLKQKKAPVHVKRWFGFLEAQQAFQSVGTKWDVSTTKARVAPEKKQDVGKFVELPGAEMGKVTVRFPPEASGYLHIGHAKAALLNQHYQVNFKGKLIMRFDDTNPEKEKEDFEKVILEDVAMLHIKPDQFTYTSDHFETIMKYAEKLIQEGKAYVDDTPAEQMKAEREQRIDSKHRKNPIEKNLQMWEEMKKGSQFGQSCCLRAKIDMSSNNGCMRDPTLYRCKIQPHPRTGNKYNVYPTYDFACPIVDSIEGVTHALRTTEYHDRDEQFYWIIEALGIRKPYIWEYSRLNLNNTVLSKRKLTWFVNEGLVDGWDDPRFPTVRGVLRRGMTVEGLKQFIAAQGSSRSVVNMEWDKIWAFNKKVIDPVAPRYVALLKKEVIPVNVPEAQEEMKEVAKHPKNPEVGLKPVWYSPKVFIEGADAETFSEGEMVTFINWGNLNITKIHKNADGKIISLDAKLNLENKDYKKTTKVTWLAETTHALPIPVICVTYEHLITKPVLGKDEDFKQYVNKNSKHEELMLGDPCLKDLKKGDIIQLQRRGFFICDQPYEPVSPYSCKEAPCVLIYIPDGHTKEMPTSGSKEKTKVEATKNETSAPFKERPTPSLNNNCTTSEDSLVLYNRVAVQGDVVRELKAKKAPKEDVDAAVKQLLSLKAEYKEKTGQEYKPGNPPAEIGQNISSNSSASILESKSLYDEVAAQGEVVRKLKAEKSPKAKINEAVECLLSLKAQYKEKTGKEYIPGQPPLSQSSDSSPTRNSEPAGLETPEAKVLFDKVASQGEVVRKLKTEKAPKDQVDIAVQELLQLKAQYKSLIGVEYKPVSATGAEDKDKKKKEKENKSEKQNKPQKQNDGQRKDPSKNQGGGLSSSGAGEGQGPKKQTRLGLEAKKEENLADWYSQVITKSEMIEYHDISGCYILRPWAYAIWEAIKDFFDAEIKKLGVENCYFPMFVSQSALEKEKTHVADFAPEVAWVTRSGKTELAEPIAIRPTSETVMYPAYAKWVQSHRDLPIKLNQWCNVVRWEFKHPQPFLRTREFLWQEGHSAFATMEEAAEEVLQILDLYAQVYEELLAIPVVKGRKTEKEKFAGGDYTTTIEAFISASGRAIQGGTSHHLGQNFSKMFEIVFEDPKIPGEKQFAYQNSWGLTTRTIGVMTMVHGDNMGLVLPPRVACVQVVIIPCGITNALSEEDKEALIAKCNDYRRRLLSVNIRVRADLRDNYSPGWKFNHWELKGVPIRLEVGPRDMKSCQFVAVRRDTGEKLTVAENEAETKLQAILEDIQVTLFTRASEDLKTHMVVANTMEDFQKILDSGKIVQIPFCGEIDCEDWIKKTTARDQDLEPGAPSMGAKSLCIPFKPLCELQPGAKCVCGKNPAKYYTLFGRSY
UniProt P10809, whole entry, looked up: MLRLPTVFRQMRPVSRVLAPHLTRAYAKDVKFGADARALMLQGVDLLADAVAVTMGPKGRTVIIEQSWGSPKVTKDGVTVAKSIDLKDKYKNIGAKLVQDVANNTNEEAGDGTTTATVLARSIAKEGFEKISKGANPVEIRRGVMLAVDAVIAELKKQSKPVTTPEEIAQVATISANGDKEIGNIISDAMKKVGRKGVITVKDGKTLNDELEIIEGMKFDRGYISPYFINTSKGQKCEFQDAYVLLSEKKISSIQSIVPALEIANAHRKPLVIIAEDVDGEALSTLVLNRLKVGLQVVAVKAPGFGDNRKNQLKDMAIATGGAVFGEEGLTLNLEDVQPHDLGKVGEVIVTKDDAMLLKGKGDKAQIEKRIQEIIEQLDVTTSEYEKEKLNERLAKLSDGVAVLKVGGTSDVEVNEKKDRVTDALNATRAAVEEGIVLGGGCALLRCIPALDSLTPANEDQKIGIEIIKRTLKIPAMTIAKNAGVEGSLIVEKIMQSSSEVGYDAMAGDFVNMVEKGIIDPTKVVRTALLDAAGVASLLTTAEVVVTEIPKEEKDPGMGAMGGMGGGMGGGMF
UniProt P12081: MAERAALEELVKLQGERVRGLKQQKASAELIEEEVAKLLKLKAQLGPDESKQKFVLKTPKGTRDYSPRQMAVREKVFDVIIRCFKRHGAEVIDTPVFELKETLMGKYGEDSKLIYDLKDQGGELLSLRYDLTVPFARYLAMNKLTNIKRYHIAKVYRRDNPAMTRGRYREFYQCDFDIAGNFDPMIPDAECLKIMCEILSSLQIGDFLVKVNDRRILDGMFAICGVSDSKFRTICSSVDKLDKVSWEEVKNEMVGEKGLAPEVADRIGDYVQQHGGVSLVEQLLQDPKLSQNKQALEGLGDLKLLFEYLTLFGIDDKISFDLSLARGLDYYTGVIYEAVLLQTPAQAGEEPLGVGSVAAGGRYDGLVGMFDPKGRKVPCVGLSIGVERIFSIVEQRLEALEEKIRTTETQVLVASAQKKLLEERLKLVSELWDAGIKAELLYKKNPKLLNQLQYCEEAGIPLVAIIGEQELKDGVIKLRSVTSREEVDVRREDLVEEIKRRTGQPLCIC
UniProt P09874, whole entry, looked up: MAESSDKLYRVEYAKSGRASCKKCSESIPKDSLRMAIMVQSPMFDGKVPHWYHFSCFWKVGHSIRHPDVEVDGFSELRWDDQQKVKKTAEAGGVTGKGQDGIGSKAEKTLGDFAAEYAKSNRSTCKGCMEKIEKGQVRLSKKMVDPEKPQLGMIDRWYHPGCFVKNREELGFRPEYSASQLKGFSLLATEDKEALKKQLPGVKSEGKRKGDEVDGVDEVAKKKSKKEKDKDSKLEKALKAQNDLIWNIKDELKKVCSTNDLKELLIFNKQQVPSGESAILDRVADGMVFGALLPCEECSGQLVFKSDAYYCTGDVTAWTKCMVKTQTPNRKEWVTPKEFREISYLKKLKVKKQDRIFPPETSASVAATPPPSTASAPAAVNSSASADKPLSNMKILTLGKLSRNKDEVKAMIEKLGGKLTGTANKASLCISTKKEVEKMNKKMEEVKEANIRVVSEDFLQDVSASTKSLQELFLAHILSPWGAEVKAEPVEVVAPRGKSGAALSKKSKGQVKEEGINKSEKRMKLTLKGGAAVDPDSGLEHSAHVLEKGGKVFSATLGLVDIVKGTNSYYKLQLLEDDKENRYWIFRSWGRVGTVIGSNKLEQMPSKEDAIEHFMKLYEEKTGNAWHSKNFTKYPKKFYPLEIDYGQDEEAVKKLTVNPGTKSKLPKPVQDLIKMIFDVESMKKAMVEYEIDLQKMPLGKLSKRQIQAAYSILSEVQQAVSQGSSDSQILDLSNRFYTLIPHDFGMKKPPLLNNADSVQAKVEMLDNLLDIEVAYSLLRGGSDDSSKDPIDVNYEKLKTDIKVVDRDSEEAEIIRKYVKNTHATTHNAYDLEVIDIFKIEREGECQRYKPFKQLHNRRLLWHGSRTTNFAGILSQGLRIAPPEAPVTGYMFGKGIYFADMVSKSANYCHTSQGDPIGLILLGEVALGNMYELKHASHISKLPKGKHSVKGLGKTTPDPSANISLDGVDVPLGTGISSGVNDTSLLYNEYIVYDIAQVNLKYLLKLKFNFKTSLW
UniProt P10768: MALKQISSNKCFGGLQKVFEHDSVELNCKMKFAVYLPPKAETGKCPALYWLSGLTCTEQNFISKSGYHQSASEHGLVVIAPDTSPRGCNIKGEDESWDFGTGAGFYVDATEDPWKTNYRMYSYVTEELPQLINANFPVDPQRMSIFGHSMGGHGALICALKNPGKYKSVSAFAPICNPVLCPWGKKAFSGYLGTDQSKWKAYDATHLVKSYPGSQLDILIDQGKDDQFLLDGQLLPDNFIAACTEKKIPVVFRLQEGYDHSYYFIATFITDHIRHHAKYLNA
UniProt P12004, whole entry, looked up: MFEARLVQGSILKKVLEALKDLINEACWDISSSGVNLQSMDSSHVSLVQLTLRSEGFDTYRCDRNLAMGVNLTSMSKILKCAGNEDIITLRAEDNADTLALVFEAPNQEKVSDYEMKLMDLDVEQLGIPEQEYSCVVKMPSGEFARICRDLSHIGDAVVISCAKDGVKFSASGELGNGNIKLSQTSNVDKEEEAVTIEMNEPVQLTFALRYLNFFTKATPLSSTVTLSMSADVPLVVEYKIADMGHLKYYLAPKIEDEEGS
UniProt P16615: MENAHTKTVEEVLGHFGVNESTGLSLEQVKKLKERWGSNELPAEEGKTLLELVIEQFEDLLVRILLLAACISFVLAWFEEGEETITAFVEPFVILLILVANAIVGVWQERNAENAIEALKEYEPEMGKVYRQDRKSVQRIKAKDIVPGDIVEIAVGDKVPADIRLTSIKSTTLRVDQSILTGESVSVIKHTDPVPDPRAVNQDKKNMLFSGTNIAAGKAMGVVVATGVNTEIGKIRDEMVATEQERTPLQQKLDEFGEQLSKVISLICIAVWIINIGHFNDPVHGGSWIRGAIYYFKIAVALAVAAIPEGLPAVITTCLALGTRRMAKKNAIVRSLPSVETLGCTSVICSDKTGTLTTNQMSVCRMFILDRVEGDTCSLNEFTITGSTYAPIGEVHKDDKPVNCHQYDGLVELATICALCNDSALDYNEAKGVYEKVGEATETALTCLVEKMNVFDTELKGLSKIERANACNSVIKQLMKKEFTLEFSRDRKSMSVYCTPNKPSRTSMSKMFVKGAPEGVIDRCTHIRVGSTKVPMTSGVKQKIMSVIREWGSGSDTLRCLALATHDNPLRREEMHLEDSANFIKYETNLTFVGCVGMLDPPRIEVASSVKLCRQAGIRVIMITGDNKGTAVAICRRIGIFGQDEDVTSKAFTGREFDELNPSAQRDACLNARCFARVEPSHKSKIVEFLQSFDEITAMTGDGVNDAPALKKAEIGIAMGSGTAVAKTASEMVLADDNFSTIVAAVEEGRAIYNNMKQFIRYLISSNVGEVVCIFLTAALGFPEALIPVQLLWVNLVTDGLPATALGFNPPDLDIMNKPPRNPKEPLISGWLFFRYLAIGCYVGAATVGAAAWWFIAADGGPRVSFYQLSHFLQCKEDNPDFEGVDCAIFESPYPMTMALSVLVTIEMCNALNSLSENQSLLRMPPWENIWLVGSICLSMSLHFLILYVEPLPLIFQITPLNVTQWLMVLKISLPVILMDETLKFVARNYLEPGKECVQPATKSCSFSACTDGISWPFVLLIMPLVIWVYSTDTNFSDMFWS

Compound: COC(=O)/C=C/c1ccccc1 [methyl cinnamate]
Assay: log2 ratio of iodoacetamide-alkyne labeling of the cysteine site, DMSO over compound (competition); higher = stronger covalent engagement of the cysteine by the compound, active = 1 or more
Details: 500 µM; treatment time 1 h; system: HEK293T cell lysate
Summary of the method: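 Electrophile (500 µM) or vehicle was added to HEK293T lysate (2 mg/mL) for 1 h at ambient temperature before iodoacetamide alkyne labelling (1 h) and click coupling to sCIP-TMT reagents. After pooling, overnight trypsin digestion at 37 °C, streptavidin enrichment and acid elution, peptides were measured by Orbitrap Eclipse LC-MS/MS with FAIMS and quantified in FragPipe. Each cysteine's log2 competition ratio compares mean control-channel with mean compound-channel reporter intensity, control over compound. Data came from duplicate channels across three replicates, excluding cysteines quantified in only one replicate.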

| Target | log2 ratio of iodoacetamide-alkyne labeling |
| --- | --- |
| HNRNPL C581 (UniProt P14866) | inactive: 0.0326 |
| TOP1 C300 (UniProt P11387) | inactive: 0.25 |
| CAPN2 C39 (UniProt P17655) | inactive: 0.114 |
| EPRS C92 (UniProt P07814) | inactive: 0.337 |
| GSPT1 C276 (UniProt P15170) | inactive: 0.0118 |
| HSPD1 C442 (UniProt P10809) | inactive: 0.228 |
| RPS2 C229 (UniProt P15880) | inactive: 0.145 |
| HARS C507 (UniProt P12081) | inactive: 0.0803 |
| CAPN2 C82 (UniProt P17655) | inactive: 0.193 |
| CNP C111 (UniProt P09543) | inactive: -0.0499 |
| PARP1 C845 (UniProt P09874) | inactive: 0.243 |
| EEF2 C591 (UniProt P13639) | inactive: 0.141 |
| UniProt P17252_C499 | inactive: -0.19 |
| CBR1 C150 (UniProt P16152) | inactive: 0.158 |
| HSP90AA1 C420 (UniProt P07900) | inactive: -0.0263 |
| MTHFD1 C195 (UniProt P11586) | inactive: 0.00161 |
| ESD C243 (UniProt P10768) | inactive: 0.0338 |
| PCNA C135 (UniProt P12004) | inactive: 0.0515 |
| ATP2A2 C997 (UniProt P16615) | inactive: 0.245 |
| CBR1 C226 (UniProt P16152) | inactive: 0.469 |
| U2AF1L5 C169 (UniProt P0DN76) | inactive: -0.0653 |

Some values from the results shown:
For log2 ratio of iodoacetamide-alkyne labeling, MTHFD1 C195 (UniProt P11586) is entered as inactive: 0.00161
For log2 ratio of iodoacetamide-alkyne labeling, ESD C243 (UniProt P10768) is entered as inactive: 0.0338
